# ± gives the standard deviation of the averaged measurements. The list shows a part of the results. Most values come without repeats; read them as rough.
# System: RAW 264.7 macrophages infected with S. aureus JE2-lux
# Assay: host macrophage viability (CellTiter-Fluor) relative to DMSO vehicle; higher = more viable host cells
# Conditions: 10 µM; treatment time 4 h; gentamicin 50 µg/ml
row,Compound,host macrophage viability
1,CCN(CC)C(=O)Cn1cc(S(=O)(=O)CC(=O)Nc2ccc(C(N)=O)cc2)c2ccccc21,121%
2,COc1ccc(/C=c2\sc3nc(-c4ccncc4)nn3c2=O)cc1OC,110%
3,COc1cccc(CNc2ncnc3oc4c(c23)CCCC4)c1,110%
4,COc1ccc(NC(=O)c2nnc(C3CCN(C(=O)Nc4ccc(C)c(Cl)c4)CC3)s2)cc1,107%
5,CCc1cc2cc(C)ccc2nc1SCC(=O)Nc1c(C)[nH]c(=O)[nH]c1=O,109%
6,CCCC(=O)Nc1nc(-c2ccc(Cl)cc2)cc(-c2ccc(OC)cc2)n1,112%
7,CN1C(=O)c2ccc(NC(=O)CCc3nc(CSc4nc5ccccc5s4)no3)cc2C1=O,107%
8,COc1ccc(NC(=O)c2ncoc2-c2ccccc2C(F)(F)F)c(OC)n1,103%
9,Cc1nc2cc(NC(=O)c3ccc(S(=O)(=O)N(C)Cc4ccccc4)cc3)ccc2s1,108%
10,COc1ccc2c(O)c(C(=O)NCC3CCCO3)cnc2c1 (configuration not stated),111%
11,CCOC(=O)c1cc(NC(=O)CSc2nc(C)nc3sc4c(c23)CCC4)cc(C(=O)OCC)c1,118.8 ± 0.44%
12,CCOC(=O)c1ccc(NC(=O)CSc2nc3c(c(=O)n2-c2ccc(C)cc2)SCC3)cc1,101%
13,CC1Cc2ccccc2N1Cc1cc(=O)c(OCC(=O)Nc2ccc(Cl)cc2)co1 (configuration not stated),97.3%
14,COc1ccc(Cl)c2sc(N(CCCn3ccnc3)C(=O)c3cccs3)nc12,127%
15,CCc1cc(-c2csc(S(=O)(=O)NCc3ccccc3Cl)c2)on1,94.7%
16,Cc1ccc2nc(Nc3cccc(O)c3)nc(-c3ccccc3)c2c1,144%
17,CCOC(=O)Cn1c(=O)c2c(nc3n2CCCN3c2ccccc2OC)n(C)c1=O,111%
18,CCOC(=O)C1=C(C)N=c2s/c(=C/c3cccnc3)c(=O)n2C1c1cccs1 (configuration not stated),103%
19,CCOC(=O)c1[nH]c2ccccc2c1NC(=S)Nc1ccc(OC)cc1,122%
20,Cc1sc2ncnc(SCC(=O)NC(Cc3ccccc3)C(=O)O)c2c1C (configuration not stated),101%
21,CCNS(=O)(=O)c1cc(-c2cc(C(=O)N3CCCC(C)C3)n[nH]2)ccc1OC (configuration not stated),94.3%
22,COc1ccc(-c2nsc(SCC(=O)Nc3ccc(OC)c(OC)c3)n2)cc1,100 ± 16%
23,CCOC(=O)c1c(NC(=O)CC2Nc3cc(C)c(C)cc3NC2=O)sc(C)c1C (configuration not stated),145%
24,CCOC(=O)c1ccc(NC(=O)C2CC3CCCN3C23C(=O)N(C)c2ccccc23)cc1 (configuration not stated),82.2%
25,Cc1cc2c(=O)n(C)c(SCC(=O)c3ccccc3)nc2s1,111%
26,Cc1ccc(S(=O)(=O)N2CCCC(C(N)=O)C2)cc1 (configuration not stated),139%

row,Compound,host macrophage viability
1,Cc1cc(C)n2nc(C(=O)NCCCc3nc4ccccc4[nH]3)cc2n1,108%
2,CC(C)CN1N=C(c2ccccc2)Cn2c1nc1c2c(=O)n(CC(C)C)c(=O)n1C,141%
3,CCc1ccc(-c2noc3c(=O)n(CCC(=O)N4CCCc5ccccc54)cnc23)cc1,116%
4,CCOC(=O)c1cc(NC(=O)Nc2ccccn2)c(C)nc1C,108%
5,Cc1ccc(S(=O)(=O)N2CCCc3ccc(NC(=O)C(=O)Nc4ccc(F)cc4)cc32)cc1,105%
6,O=C(Nc1ccc(C(O)CN2CCC(O)(c3ccccc3F)CC2)cc1)C1CC1 (configuration not stated),124%
7,Cc1ccc([N+](=O)[O-])cc1NC(=O)CCN1C(=O)c2ccccc2S1(=O)=O,114%
8,COc1ccc(NC(=O)CSc2nc3ccccc3cc2C)c(OC)c1,101%
9,O=C(Nc1ccc(Oc2cccnc2)cc1)c1[nH]nc2c1CCCCC2,122%
10,COc1cccc(-c2nc3n(n2)C(c2ccccc2F)C(C(N)=O)=C(C)N3)c1 (configuration not stated),110%
11,Cc1nn2c(C)c(C(=O)N3CCN(C4CCCCC4)CC3)cnc2c1-c1ccccc1,121%
12,O=c1[nH]c(CSc2nc3ccccc3[nH]2)nc2ccccc12,110%
13,CCOc1cccc2sc(N(Cc3cccnc3)C(=O)Cc3ccc(F)cc3)nc12,99.6%
14,CCc1ccc(Nc2nc(C)c3nc(C(F)(F)F)n(-c4ccc(CC)cc4)c3n2)cc1,124%
15,CCOc1ccc(NC(=O)N2CCC(c3nc4cc(C)ccc4[nH]3)CC2)cc1,116%
16,CCOC(=O)c1sc(N/N=C2/C(=N)N(c3ccccc3)N=C2C)c(C(=O)OCC)c1C,104%
17,COc1ccc2cc(C#N)c(SCC(=O)Nc3nonc3C)nc2c1,142%
18,COc1cc(NC(=O)C2CCN(c3cnccn3)CC2)cc(OC)c1,109%
19,Cn1nc(C(=O)N2CCCC2)c2c1CCN(S(=O)(=O)c1cccc3cccnc13)C2,119%
20,CC(=O)Oc1ccc(/C=C(\C#N)c2nc(-c3ccc(Cl)cc3)cs2)cc1,112 ± 19%
21,CC(NC(=O)c1ncoc1-c1ccc2ccccc2c1)c1ccccn1 (configuration not stated),96.4%
22,O=c1[nH]c(-c2cccc(O)c2)nc2c1Cc1c(ccc3ccccc13)O2,136%
23,CCCNC(=O)N1CCC(n2c(C)nc3cccnc32)CC1,109%
24,Cc1ccc(CN2CCCn3nc(C(=O)NC(C)C)cc3C2=O)cc1,109%
25,COc1ccc(C(NC(=O)c2ccc3nc(C)sc3c2)c2ccncc2)cc1 (configuration not stated),114%
26,O=C(CN1C(=O)COc2ccccc21)NNC(=O)NC1CCCCC1,122%

row,Compound,host macrophage viability
1,CC(C)[C@H](Cn1nc(C2CC2)ccc1=O)NC(=O)Cn1nnc2ccccc21,120%
2,COc1ccc2sc(Nc3ccccc3C#N)nc2c1,102%
3,CCc1nnc2ccc(C(=O)NCCN3CCCC3)cn12,109%
4,Cc1ccc(-c2nnc3ccccc3c2C(=O)N(C)Cc2ccccc2)cc1,115%
5,CC1CC(C)CN(C(=O)c2ccc3c(=O)n(CCC4=CCCCC4)c(=S)[nH]c3c2)C1 (configuration not stated),110%
6,CCN(CC)C(=O)Cn1nc2c3ccccc3nc(C(C)(C)C)n2c1=O,130%
7,Cn1c(=O)n(CC(N)=O)c(=O)c2c1nc(Br)n2Cc1ccccc1,105%
8,O=C(NCCc1csc2nc(-c3ccc(F)cc3)nn12)C(=O)Nc1ccc(Cl)cc1,115%
9,O=C(Nc1ccc2c(c1)N(C(=O)C1CC1)CCC2)c1ccc([N+](=O)[O-])cc1,99.7%
10,COc1ccc(NS(=O)(=O)c2cc3c4c(c2)CCN4C(=O)CC3)cc1Cl,125%
11,CN(C)/C=N/c1c(C#N)cnn1-c1ccc(Cl)nn1,113%
12,CCCN1CCN(c2ncnc3sc(C(=O)Nc4cc(OC)cc(OC)c4)c(C)c23)CC1,118%
13,O=C(Nc1cccc2ccccc12)N1CCCC(O)C1 (configuration not stated),112%
14,CC1=C(C(=O)Nc2ccc(C)c(Cl)c2)C(c2ccc(C)cc2)NC(=O)N1 (configuration not stated),115%
15,COc1nn(C)cc1C(=O)Nc1cccc(C(F)(F)F)c1,116%
16,COc1ccccc1NCc1nc2[nH]c(C)cc(=O)n2n1,96.9%
17,COCCN(CCOC)C(=O)CN1C(=O)c2ccccc2S1(=O)=O,111%
18,O=C1CN(C(=O)CSc2nnc(-c3ccccc3)c(-c3ccccc3)n2)c2ccccc2N1,97.7%
19,O=C(NCCc1cn2ccccc2n1)c1ccc([N+](=O)[O-])cc1,115%
20,Fc1cc(F)c2nc(N3CCc4ccccc4C3)sc2c1,108 ± 0.52%
21,Cc1ccc(-c2cc(N)c(=O)n(CC(=O)NCC3CCCO3)n2)o1 (configuration not stated),115%
22,COC(=O)c1c(NC(=O)/C=C/c2ccccc2Cl)sc2c1CC(C)(C)NC2(C)C,124%
23,Cn1c(=O)c2c(nc3n2CC(C(C)(C)C)=NN3Cc2ccccc2Cl)n(C)c1=O,109%
24,O=S(=O)(Nc1cccc(-c2ccc(N3CCOCC3)nn2)c1)c1ccc(Cl)c(Cl)c1,119%
25,COc1ccccc1N1CCN(C(=O)CSc2nnc3ccc(C(=O)Nc4ccc(C)cc4)cn23)CC1,112%
26,Cc1cc(Cl)ccc1OCc1nc(-c2ccc3c(c2)[nH]c(=O)n3C2CCCC2)no1,124%

# Seven entries from above, bar-delimited:
row | Compound | host macrophage viability
14 | CC1=C(C(=O)Nc2ccc(C)c(Cl)c2)C(c2ccc(C)cc2)NC(=O)N1 (configuration not stated) | 115%
15 | COc1nn(C)cc1C(=O)Nc1cccc(C(F)(F)F)c1 | 116%
16 | COc1ccccc1NCc1nc2[nH]c(C)cc(=O)n2n1 | 96.9%
17 | COCCN(CCOC)C(=O)CN1C(=O)c2ccccc2S1(=O)=O | 111%
18 | O=C1CN(C(=O)CSc2nnc(-c3ccccc3)c(-c3ccccc3)n2)c2ccccc2N1 | 97.7%
19 | O=C(NCCc1cn2ccccc2n1)c1ccc([N+](=O)[O-])cc1 | 115%
20 | Fc1cc(F)c2nc(N3CCc4ccccc4C3)sc2c1 | 108 ± 0.52%

# Later entries:

row,Compound,host macrophage viability
1,O=C1NC(=S)/C(=C\c2ccc(-c3cc(Cl)ccc3Cl)o2)S1,98.4%
2,Cc1ccc(S(=O)(=O)CCC(=O)N(CCN(C)C)c2nc3cc(C)cc(C)c3s2)cc1,69.5%
3,O=C(Cn1cnc2c(cnn2-c2ccc(F)cc2)c1=O)NCC1CCCO1 (configuration not stated),107 ± 7.2%
4,COc1ccc(CCNC(=O)c2c(O)nc3scc(C)n3c2=O)cc1,123%
5,Cc1cc2ncc(N3CCN(C4CCCCC4)CC3)nc2cc1C,128%
6,COc1ccc(-c2cnc(NC(=O)c3ccc4nc(C)[nH]c4c3)n2C)cc1,117%
7,Cc1nnc(NC(=O)c2cc(Cl)ccc2Cl)s1,106%
8,COc1cc([N+](=O)[O-])cc2sc(NC(=O)c3ccc(N4C(=O)CCC4=O)cc3)nc12,106%
9,O=C(CSC1=NS(=O)(=O)c2ccccc2N1)N1CCCC1,126%
10,COC(=O)C1CCN(C(c2cccs2)c2sc3ncnn3c2O)CC1 (configuration not stated),113%
11,CCOc1ccc2nc(-n3nc(C)c4c3NC(=O)CC4c3ccc([N+](=O)[O-])s3)sc2c1 (configuration not stated),138%
12,CCn1c(=O)c2sccc2n2c(CCCC(=O)NCCc3ccc(S(N)(=O)=O)cc3)nnc12,122%
13,O=C(CSc1nc(=O)n2ccccc2n1)Nc1ccccc1C(F)(F)F,109%
14,O=C(CSc1ncnc2c1oc1ccccc12)NCC1CCCO1 (configuration not stated),122%
15,Cc1oc(-c2ccno2)cc1S(=O)(=O)NCCC1=CCCCC1,121%
16,CCOC(=O)c1ccc(NC(=O)CSc2nccnc2N2CCN(c3ccccc3)CC2)cc1,88.1%
17,Cc1ccc(-c2nc3nc(C)cc(NCCO)n3n2)cc1,117%
18,Cc1ccc(C2=N/C(=C/c3ccc([N+](=O)[O-])cc3)C(=O)O2)cc1,119%
19,Cc1ccc(-c2nc(CN3CCC(C(=O)Nc4ncccc4O)CC3)no2)cc1,116%
20,Cc1ccc2c(c1)NC(=O)c1cc(NS(=O)(=O)c3ccc(C)c(Cl)c3)ccc1O2,124%
21,O=C(CCn1c(=S)oc2ccccc21)Nc1ccc(F)cc1,127%
22,O=C1c2oc3ccc(Cl)cc3c(=O)c2C(c2cccnc2)N1Cc1ccco1 (configuration not stated),126%
23,CC(=O)Nc1cccc(Oc2nnc(Oc3cccc(NC(C)=O)c3)c3ccccc23)c1,138%
24,CN(C)c1nc2c(c(=O)[nH]c(=O)n2C)n1CCSc1nc2ccccc2o1,133%

# Reference: the supplement of paper PMC12578635
